{
  "source": "patent US9974787B2",
  "about": "“Modified albumin microbubble” (National Taiwan University of Science and Technology, priority 2016, dated 2018)",
  "test_system": "C57BL/6 mice",
  "assay": "Histological images of mice backs (hair follicles)",
  "type": "in vivo",
  "details": "day 21",
  "note": "At least one compound was matched to its structure with a doubt left.",
  "data": [
    {"smiles": "Nc1cc(N2CCCCC2)nc(N)[n+]1[O-]", "note": "[Comparative example 8, Minoxidil]", "values": [
      {"measurement": "histology, coronal view: diameter of the keratinized hair shafts and size of hair follicles", "setting": "with US treatment", "value": "increase in the diameter of the keratinized hair shafts and the size of hair follicles"},
      {"measurement": "histology, vertical view of hair follicles (skin thickness, hair length)", "setting": "with US treatment", "value": "increased hair length"}
    ]},
    {"smiles": "Nc1cc(N2CCCCC2)nc(N)[n+]1[O-]", "note": "[Comparative example 4, Minoxidil]", "values": [
      {"measurement": "histology, vertical view of hair follicles (skin thickness, hair length)", "setting": "without US treatment", "value": "significantly increased skin thickness"}
    ]}
  ]
}
